Experimental data: PubChem BioAssay AID1159601 (NIAID, 2016)
In all, the deposit lists 756 reagents; this is a part drawn at random. 143 of them (19%) were called active. 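Calls include both lowered and raised reporter signal; each row is a single siRNA, not a gene summary; Pam3CSK4 dose not stated.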 Unmarked entries are inactive. Reagents against one gene are numbered here. Not stated in the record: the amount of reagent.

- Screen: 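Knock-down of 126 canonical TLR pathway genes, testing the TNF response to a TLR2 ligand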 (primary screen)
- System: human THP-1 reporter cells differentiated with PMA into macrophage-like cells
- Reagents: single siRNA against human genes
- Timing: ligand added 4 hours before read-out; cells assayed 48 to 72 hours after siRNA transfection
- Challenge: Pam3CSK4 (TLR2 ligand) for 4 hours; dose not given
- Detection: 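TNF promoter dual-luciferase ratio measured 4 h after Pam3CSK4, converted to robust z-scores against negative controls and averaged across replicates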
- Reading the numbers: TNF reporter z-score: higher = stronger TNF promoter reporter activity
- Rule for the call: 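The depositor grades each siRNA by the size of its mean z-score in either direction, with steps at 1, 1.5, 2 and 2.5; active calls sit near -1.5 or below, or near 1.5 or above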
- Meaning of the calls: active = clear change (up or down); inactive = little change

| gene | reagent | TNF reporter z-score, replicate mean |
| --- | --- | --- |
| TLR3 | 1 | 1.86 (active) |
| TLR3 | 2 | -1.75 (active) |
| TLR3 | 3 | 0.00714 |
| TLR3 | 4 | -0.171 |
| TLR3 | 5 | -0.189 |
| TLR3 | 6 | -0.451 |
| LY86 | 1 | 0.196 |
| LY86 | 2 | -0.51 |
| LY86 | 3 | -0.647 |
| LY86 | 4 | -2.15 (active) |
| LY86 | 5 | -0.757 |
| LY86 | 6 | -0.445 |
| BTK | 1 | -0.321 |
| BTK | 2 | 1.65 (active) |
| BTK | 3 | -1.63 (active) |
| BTK | 4 | -0.752 |
| BTK | 5 | 1.46 |
| BTK | 6 | -0.868 |
| RELA | 1 | -2.18 (active) |
| RELA | 2 | -1.38 |
| RELA | 3 | -1.15 |
| RELA | 4 | -1.7 (active) |
| RELA | 5 | -0.582 |
| RELA | 6 | -2.26 (active) |
| MAPK12 | 1 | -0.137 |
| MAPK12 | 2 | 0.0939 |
| MAPK12 | 3 | -0.892 |
| MAPK12 | 4 | -0.679 |
| MAPK12 | 5 | -0.141 |
| MAPK12 | 6 | -0.904 |
| IKBKE | 1 | 2.8 (active) |
| IKBKE | 2 | 0.225 |
| IKBKE | 3 | -1.26 |
| IKBKE | 4 | 2.51 (active) |
| IKBKE | 5 | -0.7 |
| IKBKE | 6 | -0.846 |
| OTUD5 | 1 | 1.22 |
| OTUD5 | 2 | -2.6 (active) |
| OTUD5 | 3 | -0.682 |
| OTUD5 | 4 | 1.41 |
| OTUD5 | 5 | -1.65 (active) |
| OTUD5 | 6 | -1.05 |
| CYLD | 1 | -0.176 |
| CYLD | 2 | -0.758 |
| CYLD | 3 | 0.274 |
| CYLD | 4 | -0.106 |
| CYLD | 5 | 0.254 |
| CYLD | 6 | -0.587 |

4 of these entries, set out differently.
gene	reagent	TNF reporter z-score, replicate mean
RELA	5	-0.582
RELA	6	-2.26 (active)
MAPK12	1	-0.137
MAPK12	2	0.0939
